Test results: the supplement of paper PMC10849652
Some of the results follow.

Protein sequences, listed by entry. Tags and fused reporters are not part of them. Lines headed by an entry give the natural chain unless they say otherwise; changes in a name come on top.
UniProt P43897: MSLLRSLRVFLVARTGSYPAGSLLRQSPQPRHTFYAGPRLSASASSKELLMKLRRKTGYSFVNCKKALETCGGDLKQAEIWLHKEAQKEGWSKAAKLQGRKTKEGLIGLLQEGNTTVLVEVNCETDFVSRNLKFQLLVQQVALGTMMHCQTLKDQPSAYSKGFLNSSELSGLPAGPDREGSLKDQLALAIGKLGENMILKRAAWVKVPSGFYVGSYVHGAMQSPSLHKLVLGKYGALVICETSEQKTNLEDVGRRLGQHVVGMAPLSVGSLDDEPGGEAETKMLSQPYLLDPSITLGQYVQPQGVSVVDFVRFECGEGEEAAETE
UniProt P23258, whole entry, looked up: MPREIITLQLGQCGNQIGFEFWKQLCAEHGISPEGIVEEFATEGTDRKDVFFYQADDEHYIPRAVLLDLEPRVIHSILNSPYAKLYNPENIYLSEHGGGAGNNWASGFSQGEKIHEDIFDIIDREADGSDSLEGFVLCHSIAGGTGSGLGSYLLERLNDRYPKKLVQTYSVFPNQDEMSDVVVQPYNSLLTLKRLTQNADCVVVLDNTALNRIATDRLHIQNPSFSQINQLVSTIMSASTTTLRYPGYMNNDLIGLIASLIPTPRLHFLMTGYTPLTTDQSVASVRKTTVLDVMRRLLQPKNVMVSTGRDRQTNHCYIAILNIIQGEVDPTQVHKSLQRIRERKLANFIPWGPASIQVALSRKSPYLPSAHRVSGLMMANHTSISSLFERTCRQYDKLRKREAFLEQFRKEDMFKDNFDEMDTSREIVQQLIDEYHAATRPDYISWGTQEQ
UniProt Q7Z6J9: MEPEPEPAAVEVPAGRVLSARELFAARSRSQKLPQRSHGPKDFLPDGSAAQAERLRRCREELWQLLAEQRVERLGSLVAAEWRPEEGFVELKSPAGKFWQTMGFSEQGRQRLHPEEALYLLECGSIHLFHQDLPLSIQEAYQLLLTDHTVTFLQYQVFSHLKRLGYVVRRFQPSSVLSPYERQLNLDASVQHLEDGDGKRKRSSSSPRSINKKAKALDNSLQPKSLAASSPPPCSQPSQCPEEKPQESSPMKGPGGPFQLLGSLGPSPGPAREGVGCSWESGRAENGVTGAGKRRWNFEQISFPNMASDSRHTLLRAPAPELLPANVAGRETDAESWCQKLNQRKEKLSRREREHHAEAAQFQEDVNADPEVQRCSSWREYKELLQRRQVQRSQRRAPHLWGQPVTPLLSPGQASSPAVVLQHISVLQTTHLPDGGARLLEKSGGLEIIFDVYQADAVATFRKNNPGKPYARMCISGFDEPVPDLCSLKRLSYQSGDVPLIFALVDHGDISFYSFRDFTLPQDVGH
UniProt Q13630: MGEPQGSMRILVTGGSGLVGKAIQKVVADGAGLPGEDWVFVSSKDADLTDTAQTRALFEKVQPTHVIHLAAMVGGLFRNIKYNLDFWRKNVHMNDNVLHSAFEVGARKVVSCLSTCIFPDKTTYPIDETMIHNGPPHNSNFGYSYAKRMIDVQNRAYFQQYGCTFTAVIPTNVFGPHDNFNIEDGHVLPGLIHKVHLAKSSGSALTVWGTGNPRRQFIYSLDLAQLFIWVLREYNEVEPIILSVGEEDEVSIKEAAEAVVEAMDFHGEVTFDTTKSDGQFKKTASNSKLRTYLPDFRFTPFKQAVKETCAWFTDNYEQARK
UniProt Q7Z7E8: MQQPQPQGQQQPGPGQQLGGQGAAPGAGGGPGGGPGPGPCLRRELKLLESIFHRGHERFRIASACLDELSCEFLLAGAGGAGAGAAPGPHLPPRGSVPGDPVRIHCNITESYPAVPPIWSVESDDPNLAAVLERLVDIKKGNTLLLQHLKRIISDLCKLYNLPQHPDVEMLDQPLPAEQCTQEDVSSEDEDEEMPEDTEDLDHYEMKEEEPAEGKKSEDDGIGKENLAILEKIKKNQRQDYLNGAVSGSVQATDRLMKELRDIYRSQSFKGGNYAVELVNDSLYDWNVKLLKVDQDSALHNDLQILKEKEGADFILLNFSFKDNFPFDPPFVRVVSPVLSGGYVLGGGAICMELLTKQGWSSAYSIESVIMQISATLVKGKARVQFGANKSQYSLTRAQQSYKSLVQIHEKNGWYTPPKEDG
UniProt Q2NL82: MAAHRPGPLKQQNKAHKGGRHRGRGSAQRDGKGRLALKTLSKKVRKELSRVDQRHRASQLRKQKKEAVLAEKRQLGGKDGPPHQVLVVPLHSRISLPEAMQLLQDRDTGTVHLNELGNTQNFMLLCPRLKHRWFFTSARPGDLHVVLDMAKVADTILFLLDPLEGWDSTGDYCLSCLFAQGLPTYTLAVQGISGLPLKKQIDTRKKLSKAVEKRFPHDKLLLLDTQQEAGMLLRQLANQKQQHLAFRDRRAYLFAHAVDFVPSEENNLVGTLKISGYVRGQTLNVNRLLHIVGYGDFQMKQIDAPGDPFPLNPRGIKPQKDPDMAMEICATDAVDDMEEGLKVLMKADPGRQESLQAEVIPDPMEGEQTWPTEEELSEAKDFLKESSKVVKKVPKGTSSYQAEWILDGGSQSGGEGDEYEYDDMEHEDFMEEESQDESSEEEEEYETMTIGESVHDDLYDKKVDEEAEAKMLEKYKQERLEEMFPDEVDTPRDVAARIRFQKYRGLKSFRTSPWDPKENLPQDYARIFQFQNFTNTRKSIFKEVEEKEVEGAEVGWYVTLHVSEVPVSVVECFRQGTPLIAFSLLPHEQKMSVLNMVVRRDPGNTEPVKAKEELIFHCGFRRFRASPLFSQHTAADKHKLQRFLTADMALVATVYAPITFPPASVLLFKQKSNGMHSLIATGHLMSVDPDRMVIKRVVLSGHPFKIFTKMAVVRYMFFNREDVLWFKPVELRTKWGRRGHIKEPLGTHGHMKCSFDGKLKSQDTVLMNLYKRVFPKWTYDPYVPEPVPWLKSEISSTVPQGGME
UniProt Q96RT8, whole entry, looked up: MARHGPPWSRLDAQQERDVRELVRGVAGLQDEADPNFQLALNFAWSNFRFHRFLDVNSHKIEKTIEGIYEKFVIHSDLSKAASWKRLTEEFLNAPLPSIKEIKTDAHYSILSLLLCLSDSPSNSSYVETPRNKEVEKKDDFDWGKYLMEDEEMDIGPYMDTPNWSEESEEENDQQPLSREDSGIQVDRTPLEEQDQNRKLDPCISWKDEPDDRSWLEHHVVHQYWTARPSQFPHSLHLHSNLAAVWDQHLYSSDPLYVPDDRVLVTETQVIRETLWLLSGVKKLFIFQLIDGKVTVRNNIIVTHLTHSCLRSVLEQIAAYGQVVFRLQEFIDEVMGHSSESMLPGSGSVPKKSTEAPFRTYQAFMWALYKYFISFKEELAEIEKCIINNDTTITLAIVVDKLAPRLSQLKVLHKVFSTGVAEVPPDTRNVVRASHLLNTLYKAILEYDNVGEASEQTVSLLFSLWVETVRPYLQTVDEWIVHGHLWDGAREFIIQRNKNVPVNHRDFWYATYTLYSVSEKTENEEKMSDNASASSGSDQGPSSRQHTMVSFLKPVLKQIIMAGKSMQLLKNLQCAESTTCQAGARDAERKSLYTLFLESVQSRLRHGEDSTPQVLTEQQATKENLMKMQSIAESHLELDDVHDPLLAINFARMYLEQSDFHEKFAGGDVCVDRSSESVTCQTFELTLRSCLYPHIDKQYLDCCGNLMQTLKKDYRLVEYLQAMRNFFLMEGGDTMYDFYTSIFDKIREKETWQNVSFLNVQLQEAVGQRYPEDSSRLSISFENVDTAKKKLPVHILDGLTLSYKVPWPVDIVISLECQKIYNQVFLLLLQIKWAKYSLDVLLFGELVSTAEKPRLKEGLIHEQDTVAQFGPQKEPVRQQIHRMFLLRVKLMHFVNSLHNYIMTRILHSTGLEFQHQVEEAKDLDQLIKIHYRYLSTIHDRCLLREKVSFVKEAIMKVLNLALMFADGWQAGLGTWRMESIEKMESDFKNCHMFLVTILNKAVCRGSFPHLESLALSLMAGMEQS
UniProt Q16762: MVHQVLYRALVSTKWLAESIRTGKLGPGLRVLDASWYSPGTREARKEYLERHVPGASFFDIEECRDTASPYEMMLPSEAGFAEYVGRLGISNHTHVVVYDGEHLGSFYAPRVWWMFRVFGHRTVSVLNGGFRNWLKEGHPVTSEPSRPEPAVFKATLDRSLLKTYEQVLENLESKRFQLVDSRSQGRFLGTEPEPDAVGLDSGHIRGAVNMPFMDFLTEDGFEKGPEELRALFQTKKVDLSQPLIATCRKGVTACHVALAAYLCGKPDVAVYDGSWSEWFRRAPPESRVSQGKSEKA
UniProt P26368, whole entry, looked up: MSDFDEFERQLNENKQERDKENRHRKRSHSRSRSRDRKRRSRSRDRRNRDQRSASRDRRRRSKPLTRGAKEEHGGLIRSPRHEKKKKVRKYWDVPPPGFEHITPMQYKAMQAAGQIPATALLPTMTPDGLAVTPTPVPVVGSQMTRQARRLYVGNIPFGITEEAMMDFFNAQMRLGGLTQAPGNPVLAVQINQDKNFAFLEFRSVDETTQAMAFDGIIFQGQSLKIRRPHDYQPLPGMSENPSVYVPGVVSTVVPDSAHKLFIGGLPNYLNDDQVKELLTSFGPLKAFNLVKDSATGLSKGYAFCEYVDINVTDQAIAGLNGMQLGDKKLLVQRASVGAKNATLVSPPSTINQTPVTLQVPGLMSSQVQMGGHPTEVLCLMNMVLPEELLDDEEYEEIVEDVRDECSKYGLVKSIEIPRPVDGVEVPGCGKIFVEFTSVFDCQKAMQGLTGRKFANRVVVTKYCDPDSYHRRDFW
UniProt Q99614: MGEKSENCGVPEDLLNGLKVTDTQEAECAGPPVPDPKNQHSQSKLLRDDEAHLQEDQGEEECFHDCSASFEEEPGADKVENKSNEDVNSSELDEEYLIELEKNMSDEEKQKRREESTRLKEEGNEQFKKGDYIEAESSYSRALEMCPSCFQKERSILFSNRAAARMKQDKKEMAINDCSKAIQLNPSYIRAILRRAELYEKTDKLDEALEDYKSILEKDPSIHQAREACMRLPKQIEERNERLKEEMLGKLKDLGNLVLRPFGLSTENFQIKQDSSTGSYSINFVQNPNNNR
UniProt O43396: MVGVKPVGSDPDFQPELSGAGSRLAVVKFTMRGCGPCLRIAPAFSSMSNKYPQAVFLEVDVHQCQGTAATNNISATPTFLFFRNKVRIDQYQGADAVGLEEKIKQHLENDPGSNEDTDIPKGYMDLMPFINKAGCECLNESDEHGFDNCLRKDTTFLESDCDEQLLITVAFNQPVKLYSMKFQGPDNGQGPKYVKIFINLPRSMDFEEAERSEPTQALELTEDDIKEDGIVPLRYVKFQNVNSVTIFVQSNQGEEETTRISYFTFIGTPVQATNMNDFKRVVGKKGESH
UniProt O95881: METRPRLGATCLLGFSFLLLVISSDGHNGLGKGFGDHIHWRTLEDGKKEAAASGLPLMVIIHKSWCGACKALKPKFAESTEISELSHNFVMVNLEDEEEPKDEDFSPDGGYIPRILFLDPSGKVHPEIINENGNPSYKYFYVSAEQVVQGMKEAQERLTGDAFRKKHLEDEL
UniProt Q12999: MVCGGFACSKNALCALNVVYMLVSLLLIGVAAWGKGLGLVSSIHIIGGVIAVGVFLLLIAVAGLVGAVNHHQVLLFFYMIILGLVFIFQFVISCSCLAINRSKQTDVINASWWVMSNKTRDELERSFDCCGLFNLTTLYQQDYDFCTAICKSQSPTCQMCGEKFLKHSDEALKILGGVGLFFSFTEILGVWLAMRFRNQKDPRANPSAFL
UniProt Q9NV66: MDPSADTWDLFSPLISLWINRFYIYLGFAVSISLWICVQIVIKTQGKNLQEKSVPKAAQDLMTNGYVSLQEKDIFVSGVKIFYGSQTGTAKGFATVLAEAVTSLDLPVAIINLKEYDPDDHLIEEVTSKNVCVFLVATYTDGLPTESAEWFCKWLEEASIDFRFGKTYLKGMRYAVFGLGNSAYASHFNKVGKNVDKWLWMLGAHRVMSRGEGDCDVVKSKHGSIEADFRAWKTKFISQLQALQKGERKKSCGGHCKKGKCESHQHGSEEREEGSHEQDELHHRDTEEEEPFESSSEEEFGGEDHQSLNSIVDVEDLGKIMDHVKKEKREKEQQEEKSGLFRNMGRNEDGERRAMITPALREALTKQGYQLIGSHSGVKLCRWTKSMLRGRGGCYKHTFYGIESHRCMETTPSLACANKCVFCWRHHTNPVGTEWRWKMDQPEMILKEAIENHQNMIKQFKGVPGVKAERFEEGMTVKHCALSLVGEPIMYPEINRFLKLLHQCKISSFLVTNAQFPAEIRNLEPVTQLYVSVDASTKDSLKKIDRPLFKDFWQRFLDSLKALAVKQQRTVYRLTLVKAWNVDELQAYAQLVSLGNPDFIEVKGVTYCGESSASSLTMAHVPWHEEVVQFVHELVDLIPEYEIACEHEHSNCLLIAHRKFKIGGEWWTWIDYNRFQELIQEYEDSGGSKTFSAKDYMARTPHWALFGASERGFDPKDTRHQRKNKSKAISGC

Assays:
Assay in all cases: log2 fold change, soluble protein after heating vs DMSO (PISA); higher = thermal stabilisation; K562 cells, 10 uM, 30 min; active = over 0.2 and 3.5 SD of the protein, either way, in both replicates (recomputed)
[1] = compound: CC[C@@H]1C(=O)N(C)c2cnc(Nc3ccc(C(=O)NC4CCN(C)CC4)cc3OC)nc2N1C1CCCC1
In short: (§1)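 Quantification of soluble protein used TMTpro 16plex LC-MS/MS, with channel sums equalised. Samples were the supernatant after 21,000xg for 90 min of pooled aliquots from K562 cells (2×10^6 cells/mL) treated with 10 μM compound for 30 min, heated for 3 min over 48°C-58°C, and extracted in PBS with 0.5% NP-40 at 4°C. Values, from duplicates, describe thermal stability against control samples on a log2 fold-change scale.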

volasertib = compound: CC[C@@H]1C(=O)N(C)c2cnc(Nc3ccc(C(=O)N[C@H]4CC[C@H](N5CCN(CC6CC6)CC5)CC4)cc3OC)nc2N1C(C)C [volasertib]
In short: as §1

[2] = compound: CC[C@H](C)N1C=C(C2=C(C=C(C=C21)C3=CN=C(C=C3)N4CCNCC4)C(=O)NCC5=C(C=C(NC5=O)C)C)C
In short: as §1

epoxomicin = compound: CC[C@H](C)[C@@H](C(=O)N[C@@H]([C@@H](C)O)C(=O)N[C@@H](CC(C)C)C(=O)[C@]1(CO1)C)NC(=O)[C@H]([C@@H](C)CC)N(C)C(=O)C [epoxomicin]
In short: as §1

[3] = compound: CCn1cc(-c2ccnc3[nH]c(-c4cccc(CN(C)C)c4)cc23)c(-c2ccc(NC(=O)N(C)C)cc2)n1
In short: as §1

[4] = compound: CN(C)CC(=O)Nc1ccc2[nH]c(=O)c3ccccc3c2c1
In short: as §1

[5] = compound: CN1C2=C(C3=C1C(=O)N(N=C3)CC4=CC(=CC=C4)N)SC(=C2)S(=O)C
In short: as §1

[6] = compound: CN1CCC(CNc2ccc3ncc(-c4cccc(OC(F)(F)F)c4)n3n2)CC1
In short: as §1

saracatinib = compound: CN1CCN(CCOc2cc(OC3CCOCC3)c3c(Nc4c(Cl)ccc5c4OCO5)ncnc3c2)CC1 [saracatinib]
In short: as §1

sotrastaurin = compound: CN1CCN(c2nc(C3=C(c4c[nH]c5ccccc45)C(=O)NC3=O)c3ccccc3n2)CC1 [sotrastaurin]
In short: as §1

Tubastatin A = compound: CN1CCc2c(c3ccccc3n2Cc2ccc(C(=O)NO)cc2)C1 [Tubastatin A]
In short: as §1

[7] = compound: CNC(=O)C1=CC=CC=C1NC2=NC(=NC=C2Cl)NC3=C(C=C(C=C3)N4CCOCC4)OC
In short: as §1

defactinib = compound: CNC(=O)c1ccc(Nc2ncc(C(F)(F)F)c(NCc3nccnc3N(C)S(C)(=O)=O)n2)cc1 [defactinib]
In short: as §1

rucaparib = compound: CNCc1ccc(-c2[nH]c3cc(F)cc4c3c2CCNC4=O)cc1 [rucaparib]
In short: as §1

[8] = compound: CNc1nc(-c2ccc3c(N)n[nH]c3c2)cc(N2C[C@@H](C(=O)NC3CCCCC3)CC[C@H]2C)n1
In short: as §1

encorafenib = compound: COC(=O)N[C@@H](C)CNc1nccc(-c2cn(C(C)C)nc2-c2cc(Cl)cc(NS(C)(=O)=O)c2F)n1 [encorafenib]
In short: as §1

[9] = compound: COC(=O)[C@H](CCSC)NC(=O)C1=C(C=C(C=C1)NC[C@H](CS)N)C2=CC=CC=C2
In short: as §1

[10] = compound: CCn1c(C(=O)N(C2CC2)C2CC2)cc2c3c(ncn3C)c(Nc3cc(C)n(C)n3)nc21
In short: as §1

rosiglitazone = compound: CN(CCOC1=CC=C(C=C1)C[C@H]2C(=O)NC(=O)S2)C3=CC=CC=N3 (racemic) [rosiglitazone]
In short: as §1

alvocidib = compound: CN1CC[C@H](c2c(O)cc(O)c3c(=O)cc(-c4ccccc4Cl)oc23)[C@H](O)C1 [alvocidib]
In short: as §1

Target | log2 fold change [1] | log2 fold change (volasertib) | log2 fold change [2] | log2 fold change (epoxomicin) | log2 fold change [3] | log2 fold change [4] | log2 fold change [5] | log2 fold change [6] | log2 fold change (saracatinib) | log2 fold change (sotrastaurin) | log2 fold change (Tubastatin A) | log2 fold change [7] | log2 fold change (defactinib) | log2 fold change (rucaparib) | log2 fold change [8] | log2 fold change (encorafenib) | log2 fold change [9] | log2 fold change [10] | log2 fold change (rosiglitazone) | log2 fold change (alvocidib)
TSFM (UniProt P43897) | inactive: -0.003 | inactive: -0.092 | inactive: 0.046 | inactive: 0.212 | inactive: 0.074 | inactive: 0.081 | inactive: -0.041 | inactive: -0.056 | inactive: 0.057 | inactive: -0.157 | inactive: 0.063 | inactive: 0.021 | inactive: -0.166 | inactive: -0.001 | inactive: -0.073 | inactive: 0.167 | inactive: -0.082 |  |  | 
TUBG1 (UniProt P23258) | inactive: 0.048 | inactive: 0.035 | inactive: 0 | inactive: 0.025 | inactive: 0.018 | inactive: 0.012 | inactive: 0.008 | inactive: -0.034 | inactive: -0.028 | inactive: 0 | inactive: 0.075 | inactive: -0.03 | inactive: -0.004 | inactive: 0.039 | inactive: -0.063 | inactive: -0.023 | inactive: 0.031 | inactive: 0.098 | inactive: -0.007 | inactive: 0.018
TSEN54 (UniProt Q7Z6J9) | inactive: 0.001 | inactive: -0.014 | inactive: 0.11 | inactive: 0.005 | inactive: 0.12 | inactive: 0.054 | inactive: -0.178 | inactive: -0.149 | inactive: -0.098 | inactive: -0.006 | inactive: 0 | inactive: -0.181 | inactive: 0.012 | inactive: -0.214 | inactive: 0.119 | inactive: -0.005 | inactive: -0.013 | inactive: -0.152 | inactive: 0.039 | inactive: -0.082
TSTA3 (UniProt Q13630) | inactive: 0.03 | inactive: 0.049 | inactive: -0.032 | inactive: 0.022 | inactive: 0.001 | inactive: -0.005 | inactive: -0.045 | inactive: -0.055 | inactive: 0.033 | inactive: 0.029 | inactive: -0.01 | inactive: -0.054 | inactive: -0.006 | inactive: -0.057 | inactive: -0.029 | inactive: -0.005 | inactive: 0.025 | inactive: 0.009 | inactive: 0.004 | inactive: -0.022
UBE2Q1 (UniProt Q7Z7E8) | inactive: -0.087 | active: -0.295 | inactive: 0.015 | inactive: -0.042 | inactive: -0.048 | inactive: 0.027 | inactive: -0.007 | inactive: -0.212 | inactive: -0.023 | inactive: -0.001 | inactive: 0.027 | inactive: 0.05 | inactive: -0.143 | inactive: -0.008 | inactive: 0.048 | inactive: 0.04 | inactive: -0.017 |  |  | 
TSR1 (UniProt Q2NL82) | inactive: 0.145 | inactive: 0.132 | inactive: 0.119 | inactive: -0.013 | inactive: -0.065 | inactive: 0.076 | inactive: 0.132 | inactive: 0.117 | inactive: -0.079 | inactive: -0.042 | inactive: 0.2 | inactive: -0.027 | inactive: 0.065 | inactive: 0.117 | inactive: 0.245 | inactive: 0.161 | inactive: -0.048 | inactive: -0.083 | inactive: 0.025 | inactive: 0.1
TTF2 (UniProt Q9UNY4) | inactive: 0.003 | inactive: -0.231 | inactive: -0.034 | inactive: 0.052 | inactive: 0.112 | inactive: 0.012 | inactive: 0.107 | inactive: -0.267 | inactive: 0.047 | inactive: 0.044 | inactive: -0.05 | inactive: 0.056 | inactive: 0.007 | inactive: 0.332 | inactive: 0.212 | inactive: 0.235 | inactive: -0.175 | inactive: -0.165 |  | inactive: 0.2
TUBGCP5 (UniProt Q96RT8) | inactive: -0.025 | inactive: 0.022 | inactive: 0.137 | inactive: 0.001 | inactive: 0.031 |  |  | inactive: -0.107 |  |  | inactive: -0.076 | inactive: 0.118 |  | inactive: 0.029 |  | inactive: -0.054 |  | inactive: 0.031 | inactive: 0.001 | inactive: 0.004
TTC17 (UniProt Q96AE7) | inactive: 0.042 | inactive: 0.17 | inactive: -0.036 | inactive: -0.029 | inactive: -0.001 | inactive: -0.035 | inactive: 0.032 | inactive: 0.164 | inactive: -0.009 | inactive: 0.078 | inactive: -0.012 | inactive: 0.083 | inactive: 0.005 | inactive: -0.068 | inactive: -0.036 | inactive: 0.074 | inactive: 0.003 | inactive: -0.012 | inactive: -0.033 | inactive: 0.003
TST (UniProt Q16762) | inactive: 0.051 | inactive: 0.065 | inactive: 0.014 | inactive: -0.128 |  | inactive: 0.071 | inactive: 0.029 |  | inactive: -0.02 | inactive: 0.096 |  | inactive: 0.029 | inactive: -0.16 | inactive: 0.33 | inactive: 0.002 | inactive: -0.002 | inactive: -0.051 | inactive: 0.091 |  | inactive: -0.091
U2AF2 (UniProt P26368) | inactive: -0.057 | active: -0.231 | inactive: 0.039 | inactive: -0.024 | inactive: 0 | inactive: 0.002 | inactive: 0 | active: -0.307 | inactive: 0.022 | inactive: 0.056 | inactive: -0.007 | inactive: -0.181 | inactive: -0.035 | inactive: 0.163 | inactive: -0.037 | inactive: -0.037 | inactive: 0.001 |  |  | 
TTC1 (UniProt Q99614) | inactive: -0.017 | inactive: 0.054 | inactive: -0.039 | inactive: -0.033 | inactive: -0.006 | inactive: -0.013 | inactive: -0.051 | inactive: -0.014 | inactive: -0.008 | inactive: 0.064 | inactive: 0.007 | inactive: -0.004 | inactive: -0.012 | inactive: -0.006 | inactive: -0.044 | inactive: -0.045 | inactive: 0.019 | inactive: 0.039 | inactive: -0.02 | inactive: 0.022
TXNL1 (UniProt O43396) | inactive: -0.104 | inactive: -0.163 | inactive: 0.044 | active: 0.295 | inactive: -0.031 | inactive: 0.027 | inactive: -0.018 | inactive: 0.011 | inactive: -0.008 | inactive: -0.068 | inactive: 0.215 | inactive: 0.034 | inactive: -0.085 | inactive: 0.019 | inactive: 0.024 | inactive: 0.062 | inactive: -0.045 |  |  | 
TXNDC12 (UniProt O95881) | inactive: -0.011 | inactive: 0.009 | inactive: -0.006 | inactive: -0.015 | inactive: 0.032 | inactive: -0.03 | inactive: 0.078 | inactive: 0.103 | inactive: -0.138 | inactive: 0.047 | inactive: -0.006 | inactive: 0.043 | inactive: 0.019 | inactive: 0.004 | inactive: -0.04 | inactive: 0.056 | inactive: -0.026 | inactive: 0.033 | inactive: -0.027 | inactive: 0.05
UBA1 (UniProt P22314) | inactive: -0.236 | active: -0.543 | inactive: 0.133 | inactive: 0.044 | inactive: -0.008 | inactive: 0.115 | inactive: 0.023 | inactive: -0.02 | inactive: -0.048 | inactive: -0.17 | inactive: -0.052 | inactive: 0.015 | inactive: -0.058 | inactive: -0.019 | inactive: 0.055 | inactive: 0.149 | inactive: -0.057 |  |  | 
TSPAN31 (UniProt Q12999) | inactive: -0.032 | inactive: 0.003 | inactive: 0.289 | inactive: 0.079 |  |  | inactive: -0.045 |  | inactive: 0.071 | inactive: 0.114 | inactive: -0.146 | inactive: -0.171 |  | inactive: -0.082 | inactive: 0 | inactive: -0.081 |  | inactive: -0.188 |  | inactive: 0.048
TYW1 (UniProt Q9NV66) | inactive: -0.02 | active: -0.341 | inactive: 0.052 | inactive: 0.03 | inactive: -0.002 | inactive: 0.031 | inactive: 0.014 | inactive: 0.088 | inactive: 0.089 | inactive: -0.059 | inactive: -0.033 | inactive: 0.031 | inactive: -0.055 | inactive: 0.052 | inactive: -0.061 | inactive: 0.028 | inactive: -0.059 |  |  | 

Part of the list above, reduced to log2 fold change [8], log2 fold change (Tubastatin A) and log2 fold change [7].
Target | log2 fold change [8] | log2 fold change (Tubastatin A) | log2 fold change [7]
TSPAN31 (UniProt Q12999) | inactive: 0 | inactive: -0.146 | inactive: -0.171
TYW1 (UniProt Q9NV66) | inactive: -0.061 | inactive: -0.033 | inactive: 0.031
